Results on 1 sequence are retold here after paper PMC11686378.

The test system of data set [1] is RPA (Rpa1/Rpa2/Rpa3) (Pyrococcus abyssi). As to the kind of experiment: BLI. The note with it: RPA loaded on immobilized ssDNA as filament bait for PriSL or PolD; BLI: 20 mM Na-HEPES pH 8, 150 mM NaCl, 0.2 mg/ml BSA; recombinant protein; label: 3'-TEG-biotin; single-stranded DNA.
The test system of data set [2] is RPAΔWH (Rpa1/Rpa2 1-179/Rpa3) (Pyrococcus abyssi). Briefly: BLI. The note with it: RPAΔWH loaded on immobilized ssDNA as filament bait for PriSL or PolD; BLI: 20 mM Na-HEPES pH 8, 150 mM NaCl, 0.2 mg/ml BSA; recombinant protein; label: 3'-TEG-biotin; single-stranded DNA.

Construct, isoform or probe ends are uncertain for at least one entry. At least one verdict was read from the data and is not stated in words by the source.

Regarding “CACGCCCTACCTCCATGATCCACTGACCTCCCAGACGCTGCAAGACTTCC [3'-TEG-biotin ssDNA BLI bait]”, the binding result in data set [1] and in data set [2] was “binds” in each case.
